Experimental data published in PubChem BioAssay AID540276 (National Center for Advancing Translational Sciences (NCATS), 2011).
“And” between values parts separate entries of the source, which are not always exact repeats. Equal entries are not always repeated. Out of some 300,000 compounds screened, about 5,400 (1.8%) were called active. Inconclusive means that the source gave no clear call. Such entries were picked first, then a sample of the others. Calls come from the whole dose curve; tested in HEK293 cells. Where the call is inconclusive, the potency comes from a doubtful curve fit.

Assay: qHTS for inhibitors of binding or entry into cells for Marburg Virus
Conditions: Marburg virus pseudotyped entry inhibition, cell reporter; series mostly up to 37.8 µM
Potency is the fitted concentration of half-maximal effect.

| SMILES | Potency |
| --- | --- |
| CC/C(=N\NC(=O)c1c[nH]c2ccccc12)c1cccs1 | inconclusive: 1.3 µM [activator, full curve, poor fit] |
| CC(=O)c1ccc(-n2c(C)c(C(C)=O)c3cc(O)ccc32)cc1 | inactive |
| Clc1ccc(-c2cc(CSc3ccccc3)on2)cc1 | inconclusive: 0.562 µM [activator, full curve, poor fit] |
| O=C(Nc1ccc(Cl)cc1)C(Cl)C(=O)c1ccccc1 (stereo not given) | inactive |
| Cc1cccc(NC(=O)c2ccc([N+](=O)[O-])cc2Cl)n1 | inactive |
| Cc1cc(-c2nc3ncccc3o2)ccc1NC(=O)c1ccc(Cl)cc1 | inactive |
| CCCCOc1ccc(C(O)(CCC)CCN2CCOCC2)cc1 (stereo not given) | inconclusive: 31.6 µM [inhibitor, single point] |
| COc1cc(C(=O)NCC(=O)N/N=C/c2ccccn2)cc(OC)c1OC | inactive |
| O=c1c2cc(NC(=S)NC3CCCCC3)ccc2nc2n1CCCCC2 | inactive |
| Cc1cnc(NC(=O)COc2ccccc2Cl)s1 | active: 2.31 µM |
| COc1ccc(C(=O)NCC(=O)N=Nc2c(O)n(Cc3ccccc3)c3ccccc23)cc1OC | inactive |
| O=C(N=Nc1c(O)n(Cc2ccccc2)c2ccccc12)c1ccc(O)cc1 | inconclusive: 31.6 µM [inhibitor, single point] |
| O=C(Cc1ccccc1)Nc1ccc2oc(-c3ccncc3)nc2c1 | inactive |
| Cc1sc2nc(-c3ccccn3)[nH]c(=O)c2c1-c1ccccc1 | inconclusive: 10 µM [inhibitor, partial curve] |
| Cc1cc(C2(c3ccc(O)c(C)c3)OC(=O)c3ccccc32)ccc1O | inconclusive: 8.91 µM [inhibitor, partial curve, poor fit] |
| O=C(CSc1nnc(-c2ccccc2)n1Cc1ccco1)Nc1ccc2c(c1)OCCO2 | inactive |
| CCCCCCn1c(=O)c(C(=O)Nc2nc(CC(=O)OCC)cs2)c(O)c2ccccc21 | inconclusive: 3.55 µM [inhibitor, partial curve, poor fit] |
| Cn1ccc2c(N(c3ccccc3)C3CCCCC3)cc3c(c21)C1CCC3O1 (stereo not given) | inconclusive: 0.0031 µM [activator, full curve, poor fit] |
| Cc1cccc(NS(=O)(=O)c2ccc(C)c(NS(=O)(=O)c3cccs3)c2)c1 | inconclusive: 12.6 µM [inhibitor, partial curve, poor fit] |
| O=C(NNC(=O)c1ccc(Cl)cc1Cl)c1cccs1 | inconclusive: 3.16 µM [inhibitor, partial curve, poor fit] |
| N=c1c(S(=O)(=O)c2ccccc2)cc2c(=O)n3ccccc3nc2n1C1CCCCC1 | inconclusive: 35.5 µM [inhibitor, single point] |
| CCCOc1ccccc1NC(=O)Nc1ccccc1Cl | inconclusive: 3.55 µM [inhibitor, single point] |
| Cc1cccc(-n2ncc3c(NCc4cccs4)ncnc32)c1 | inactive |
| Cc1cc2nc(/N=C(\N)NC(=O)N3c4ccccc4Sc4ccccc43)nc(C)c2cc1C | inconclusive: 3.98 µM [inhibitor, single point] and inconclusive: 6.31 µM [inhibitor, single point] |

| SMILES | Potency |
| --- | --- |
| CCC(=O)N1CCc2cc(Br)cc(S(=O)(=O)N(CC)Cc3ccccc3)c21 | inactive |
| COC(=O)C1=C(C)N(Cc2ccc(OC)c(OC)c2)C(=O)C1 | inconclusive: 22.4 µM [inhibitor, single point] |
| CCOc1ccc(NC(=O)CC2C(=O)N(c3ccc(C)cc3)C(=O)N2Cc2ccc(OC)cc2)cc1 (stereo not given) | inactive |
| CC1CCCCN1CCNC(=O)c1ccc2c(c1)N(Cc1ccccc1)C(=O)c1ccccc1S2(=O)=O (stereo not given) | inconclusive: 17.8 µM [inhibitor, partial curve, poor fit] |
| CCCCn1c(N)c(N(CCC(C)C)C(=O)C2CC(=O)N(c3ccccc3OCC)C2)c(=O)[nH]c1=O (stereo not given) | inconclusive: 31.6 µM [activator, single point] |
| COc1cccc(COC(=O)Nc2ccccc2F)c1 | inconclusive: 10 µM [inhibitor, partial curve, poor fit] |
| O=C(N/N=C(\c1ccccc1)c1cccnc1)c1ccc(O)cc1 | inactive |
| COC(=O)C(NS(=O)(=O)c1ccc(C)cc1)c1ccccc1 (stereo not given) | inconclusive: 0.562 µM [inhibitor, full curve, poor fit] |
| O=C(CNC(=O)c1ccc(F)cc1)c1ccc(Cl)cc1 | inconclusive: 5.62 µM [activator, single point] |
| CCCc1nc(SCC(=O)N2CCOCC2)c2c(C)c(C)sc2n1 | inconclusive: 1 µM [inhibitor, partial curve, poor fit] |
| CCc1ccc(-c2nn(Cc3ccccc3)cc2C=O)cc1 | inconclusive: 14.1 µM [inhibitor, single point] |
| CC(=O)OC1CCC2(C)C(CCC3C2CC(=O)C2(C)C3CC(N3CC3)C2C(C)=O)C1 (stereo not given) | inconclusive: 35.5 µM [inhibitor, single point] |
| Cc1ccc2c(c1)-c1cc(C)ccc1C2=O | inactive |
| Cc1cc(C(=O)NCc2ccccc2F)cs1 | inactive |
| COc1cc(Cl)ccc1NC(=S)N(CCCN1CCOCC1)Cc1cn(C)c2ccccc12 | inconclusive: 20.6 µM [inhibitor, partial curve, poor fit] |
| O=C(N/N=C/c1ccc[nH]1)c1sc2ccccc2c1Cl | inconclusive: 2.91 µM [inhibitor, full curve] |
| CC(OC(=O)c1ccc2c(=O)n3c(nc2c1)CCCCC3)C(=O)Nc1ncc(Cl)cc1Cl (stereo not given) | inconclusive: 11.2 µM [activator, partial curve, poor fit] |
| COc1ccccc1N1CCN(C(=O)c2cc3c(C)nc4ccccc4c3o2)CC1 | inconclusive: 10 µM [inhibitor, partial curve, poor fit] |
| CC1(C)CC(NC(=O)C23CCC(C)(C(=O)C2)C3(C)C)CC(C)(C)N1 (stereo not given) | inconclusive: 1.03 µM [activator, single point] |
| Cc1ccc(-n2c(-c3ccco3)nc3c(cnn3-c3ccc(C)cc3)c2=O)cc1 | inactive and inconclusive: 35.5 µM [activator, single point] |
| CCOC(=O)c1c(NC(=O)C(F)(OC)C(F)(F)F)sc2c1CCN(C)C2 (stereo not given) | inconclusive: 8.91 µM [inhibitor, partial curve, poor fit] |
| O=C(/C=C/c1cccnc1)c1cccc(O)c1 | inconclusive: 22.4 µM [inhibitor, partial curve, poor fit] |
| COc1ccc(CNC(=O)CN(c2ccc(OC)cc2)S(=O)(=O)c2c(C)[nH]c(=O)[nH]c2=O)cc1 | inactive |
| Cc1ccc2c(c1)C(=O)C(=O)N2CC(=O)Nc1ccccc1NC(=O)c1ccccn1 | inconclusive: 17.8 µM [inhibitor, single point] |

| SMILES | Potency |
| --- | --- |
| CCOc1ccc(Nc2nc(Cc3nnc(SCC(=O)c4ccc(C)c(C)c4)o3)cs2)cc1 | inconclusive: 32.6 µM [inhibitor, single point] |
| CC1(C)C2CCC1(CS(=O)(=O)N1CCCc3ccccc31)C(=O)C2 (stereo not given) | inactive |
| O=C(c1ccco1)N1CCN(C(=O)c2snc3ccc(Cl)cc23)CC1 | inactive |
| CC1=C(C(=O)OCC2CCCCC2)C(c2cccc(F)c2F)CC(=O)N1 (stereo not given) | inactive |
| CC(NC(=O)NC(=O)c1ccc(Cl)cc1Cl)C1CC1 (stereo not given) | inconclusive: 35.5 µM [activator, single point] |
| O=C(CN1CCOCC1)Nc1ccc(C2CCCCC2)cc1 | inactive |
| CCN(CC)CCCOc1ccc(C)cc1Br | inconclusive: 35.5 µM [inhibitor, single point] |
| O=C(Cc1cccc2ccccc12)NC(NC(=S)Nc1ccccc1Cl)C(Cl)(Cl)Cl (stereo not given) | active: 5.62 µM |
| CCOC(=O)c1c(NC(=O)C(C)N2CCN(C(=O)c3ccco3)CC2)sc2c1CCCC2 (stereo not given) | inconclusive: 35.5 µM [inhibitor, single point] |
| CCN(CC)CCNC(=O)c1cc2c(=O)n(CC)c3ccccc3c2s1 | inactive |
| O=C(NCCCCc1ccccc1)c1nn(-c2ccccc2)nc1CO | inactive |
| CCSc1nnc2n(-c3ccc(OC)cc3)c(=O)c3c4c(sc3n12)CCCC4 | inactive |
| FC(F)(F)c1ccc(CN2CCNCC2)cc1 | inconclusive: 2 µM [inhibitor, partial curve, poor fit] |
| c1ccc(Nc2nc(NCC3CCCO3)c3ccccc3n2)cc1 (stereo not given) | inconclusive: 0.794 µM [inhibitor, full curve, poor fit] |
| CC(=O)Nc1cccc(OCC(=O)Nc2ccc(F)cc2)c1 | inactive |
| O=[N+]([O-])c1cc(-n2cccc2)ccc1N1CCOCC1 | inconclusive: 2.82 µM [inhibitor, single point] |
| COc1cccc(Cl)c1NC(=O)N1CCc2c([nH]c3ccccc23)C1C(F)(F)F (stereo not given) | inconclusive: 1.78 µM [inhibitor, partial curve, poor fit] |
| CCOC(=O)C1CCCN(C(=O)CNC(=O)c2nn(-c3ccc(OC)c(Cl)c3)c(=O)c3ccccc23)C1 (stereo not given) | inactive |
| COC1=C[C@H](C(=O)NCc2ccccn2)[C@@]2(C)Cc3ccccc3[C@@H]2CC1=O | inactive |
| CCOC(=O)c1c(C)[nH]c(C(=O)COC(=O)COc2ccc(OC)cc2)c1C | inactive |
| CC(C)(C)C(=O)/C(=C/c1cccc([N+](=O)[O-])c1)n1cncn1 | active: 3.98 µM |
| O=C(Nc1ccc(Oc2nnc(-c3ccccc3)c3ccccc23)cc1)c1ccccc1 | inconclusive: 0.0891 µM [inhibitor, full curve, poor fit] |

Quoted from the listing.
In Potency, `O=C(NCCCCc1ccccc1)c1nn(-c2ccccc2)nc1CO` reads inactive
In Potency, `CC(NC(=O)NC(=O)c1ccc(Cl)cc1Cl)C1CC1` (stereo not given) reads inconclusive: 35.5 µM [activator, single point]
In Potency, `COC1=C[C@H](C(=O)NCc2ccccn2)[C@@]2(C)Cc3ccccc3[C@@H]2CC1=O` reads inactive
